# From the supplement of paper PMC8728848
# Some of the results follow.
# How the values were obtained:
# Assay in all cases: glycan array binding signal (z-score within array); higher = stronger binding
# Conditions in all cases: glycan notation: IUPAC condensed, linker removed
# [1] = target: Fuc(a1-2)Gal(b1-4)[Fuc(a1-3)]GlcNAc(b1-2)Man(a1-3)[Fuc(a1-2)Gal(b1-4)[Fuc(a1-3)]GlcNAc(b1-2)Man(a1-6)]Man(b1-4)GlcNAc(b1-4)[Fuc(a1-6)]GlcNAc
# Outline: (§1)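 Glycan array data were curated from 3228 arrays in the Consortium for Functional Glycomics database and kept only where the protein sequence was available. Glycan names were converted to IUPAC-condensed notation, and columns mapping to the same glycan were averaged. The binding signal is a within-array Z-score, averaged across arrays of the same protein sequence at different concentrations or buffers and across linkers. Negative Z-scores can be read as non-binding.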
# [2] = target: Fuc(a1-2)Gal(b1-4)[Fuc(a1-3)]GlcNAc(b1-2)[Fuc(a1-2)Gal(b1-4)[Fuc(a1-3)]GlcNAc(b1-4)]Man(a1-3)[Fuc(a1-2)Gal(b1-4)[Fuc(a1-3)]GlcNAc(b1-2)Man(a1-6)]Man(b1-4)GlcNAc(b1-4)GlcNAc
# Outline: as §1
# [3] = target: Fuc(a1-2)Gal(b1-4)[Fuc(a1-3)]GlcNAc(b1-3)Gal(b1-4)[Fuc(a1-3)]GlcNAc
# Outline: as §1
# [4] = target: Fuc(a1-2)Gal(b1-4)[Fuc(a1-3)]GlcNAc(b1-3)Gal(b1-4)[Fuc(a1-3)]GlcNAc(b1-3)Gal(b1-4)[Fuc(a1-3)]GlcNAc
# Outline: as §1
# [5] = target: Fuc(a1-2)Gal(b1-4)[Fuc(a1-3)]GlcNAc(b1-3)GalNAc
# Outline: as §1
# [6] = target: Fuc(a1-2)Gal(b1-4)[Fuc(a1-3)]GlcNAc(b1-3)[Neu5Ac(a2-6)Gal(b1-4)GlcNAc(b1-6)]Gal(b1-4)Glc
# Outline: as §1
# [7] = target: Fuc(a1-2)Gal3S(b1-4)GlcNAc
# Outline: as §1
# [8] = target: Fuc(a1-2)Gal6S(b1-3)GlcNAc
# Outline: as §1
# [9] = target: Fuc(a1-2)Gal6S(b1-3)GlcNAc6S
# Outline: as §1
# Fuc(a1-2)Gal6S(b1-4)Glc = target: Fuc(a1-2)Gal6S(b1-4)Glc
# Outline: as §1
# [10] = target: Fuc(a1-2)Gal6S(b1-4)Glc6S
# Outline: as §1
# Fuc(a1-2)[Gal(a1-3)]Gal = target: Fuc(a1-2)[Gal(a1-3)]Gal
# Outline: as §1
# [11] = target: Fuc(a1-2)[Gal(a1-3)]Gal(b1-3)GalNAc
# Outline: as §1
# [12] = target: Fuc(a1-2)[Gal(a1-3)]Gal(b1-3)GalNAc(b1-3)Gal(a1-4)Gal(b1-4)Glc
# Outline: as §1
# [13] = target: Fuc(a1-2)[Gal(a1-3)]Gal(b1-3)GlcNAc
# Outline: as §1
# [14] = target: Fuc(a1-2)[Gal(a1-3)]Gal(b1-3)GlcNAc(b1-2)Man(a1-3)[Fuc(a1-2)[Gal(a1-3)]Gal(b1-3)GlcNAc(b1-2)Man(a1-6)]Man(b1-4)GlcNAc(b1-4)GlcNAc
# Outline: as §1
# [15] = target: Fuc(a1-2)[Gal(a1-3)]Gal(b1-3)GlcNAc(b1-2)Man(a1-3)[Fuc(a1-2)[Gal(a1-3)]Gal(b1-3)GlcNAc(b1-2)Man(a1-6)]Man(b1-4)GlcNAc(b1-4)[Fuc(a1-6)]GlcNAc
# Outline: as §1
# [16] = target: Fuc(a1-2)[Gal(a1-3)]Gal(b1-3)GlcNAc(b1-3)GalNAc
# Outline: as §1
# [17] = target: Fuc(a1-2)[Gal(a1-3)]Gal(b1-3)GlcNAc(b1-6)GalNAc
# Outline: as §1
# [18] = target: Fuc(a1-2)[Gal(a1-3)]Gal(b1-4)Glc
# Outline: as §1
# [19] = target: Fuc(a1-2)[Gal(a1-3)]Gal(b1-4)GlcNAc
# Outline: as §1
# [20] = target: Fuc(a1-2)[Gal(a1-3)]Gal(b1-4)GlcNAc(b1-2)Man
# Outline: as §1
# [21] = target: Fuc(a1-2)[Gal(a1-3)]Gal(b1-4)GlcNAc(b1-2)Man(a1-3)[Fuc(a1-2)[Gal(a1-3)]Gal(b1-4)GlcNAc(b1-2)Man(a1-6)]Man(b1-4)GlcNAc(b1-4)GlcNAc
# Outline: as §1
# [22] = target: Fuc(a1-2)[Gal(a1-3)]Gal(b1-4)GlcNAc(b1-2)Man(a1-3)[Fuc(a1-2)[Gal(a1-3)]Gal(b1-4)GlcNAc(b1-2)Man(a1-6)]Man(b1-4)GlcNAc(b1-4)[Fuc(a1-6)]GlcNAc
# Outline: as §1
# [23] = target: Fuc(a1-2)[Gal(a1-3)]Gal(b1-4)GlcNAc(b1-3)GalNAc
# Outline: as §1
# [24] = target: Fuc(a1-2)[Gal(a1-3)]Gal(b1-4)GlcNAc(b1-3)[Fuc(a1-2)[Gal(a1-3)]Gal(b1-4)GlcNAc(b1-6)]GalNAc
# Outline: as §1
# [25] = target: Fuc(a1-2)[Gal(a1-3)]Gal(b1-4)GlcNAc(b1-6)GalNAc
# Outline: as §1
# [26] = target: Fuc(a1-2)[Gal(a1-3)]Gal(b1-4)[Fuc(a1-3)]Glc
# Outline: as §1
# [27] = target: Fuc(a1-2)[Gal(a1-3)]Gal(b1-4)[Fuc(a1-3)]GlcNAc
# Outline: as §1
# [28] = target: Fuc(a1-2)[Gal(a1-3)]Gal(b1-4)[Fuc(a1-3)]GlcNAc(b1-3)GalNAc
# Outline: as §1
# [29] = target: Fuc(a1-2)[Gal(a1-4)]Gal(b1-4)GlcNAc
# Outline: as §1
# [30] = target: Fuc(a1-2)[GalNAc(a1-3)]Gal
# Outline: as §1
# [31] = target: Fuc(a1-2)[GalNAc(a1-3)]Gal(b1-3)GalNAc(a1-3)[Fuc(a1-2)]Gal(b1-4)GlcNAc
# Outline: as §1
# [32] = target: Fuc(a1-2)[GalNAc(a1-3)]Gal(b1-3)GalNAc(b1-3)Gal(a1-4)Gal(b1-4)Glc
# Outline: as §1
# [33] = target: Fuc(a1-2)[GalNAc(a1-3)]Gal(b1-3)GlcNAc
# Outline: as §1
# [34] = target: Fuc(a1-2)[GalNAc(a1-3)]Gal(b1-3)GlcNAc(b1-2)Man(a1-3)[Fuc(a1-2)[GalNAc(a1-3)]Gal(b1-3)GlcNAc(b1-2)Man(a1-6)]Man(b1-4)GlcNAc(b1-4)GlcNAc
# Outline: as §1
# [35] = target: Fuc(a1-2)[GalNAc(a1-3)]Gal(b1-3)GlcNAc(b1-2)Man(a1-3)[Fuc(a1-2)[GalNAc(a1-3)]Gal(b1-3)GlcNAc(b1-2)Man(a1-6)]Man(b1-4)GlcNAc(b1-4)[Fuc(a1-6)]GlcNAc
# Outline: as §1
# [36] = target: Fuc(a1-2)[GalNAc(a1-3)]Gal(b1-3)GlcNAc(b1-3)GalNAc
# Outline: as §1
binder,measurement,setting,value
Pwp6 (Candida glabrata) (protein) MGSSHHHHHHSSGLVPRGSHMASANLPKLTNICQIPDNVKKTSGFKGEIRRIGLFPPGGDYTYLLKFPSTGSTASDTISLTTKPQLSTSGWFPSLFGHTYFIKADLLVYMVAYFVPTETGEYTFKLVNSDDAAVMYVGNPSAFPCGSIDTWPEPRKEDINVCDKISASTKLYMEKGLAYPVRLVWYNGGGDGQFNAQFIDPSGTTHTDWNGYVWQYDACTDCDYK,glycan array binding signal (z-score),[1],1.11
same,glycan array binding signal (z-score),[2],0.133
same,glycan array binding signal (z-score),[3],-0.557
same,glycan array binding signal (z-score),[4],-0.241
same,glycan array binding signal (z-score),[5],-0.201
same,glycan array binding signal (z-score),[6],-0.26
same,glycan array binding signal (z-score),[7],-0.759
same,glycan array binding signal (z-score),[8],-0.595
same,glycan array binding signal (z-score),[9],0.097
same,glycan array binding signal (z-score),Fuc(a1-2)Gal6S(b1-4)Glc,-0.392
same,glycan array binding signal (z-score),[10],-0.287
same,glycan array binding signal (z-score),Fuc(a1-2)[Gal(a1-3)]Gal,-0.563
same,glycan array binding signal (z-score),[11],0.537
same,glycan array binding signal (z-score),[12],0.564
same,glycan array binding signal (z-score),[13],-0.701
same,glycan array binding signal (z-score),[14],0.3
same,glycan array binding signal (z-score),[15],0.262
same,glycan array binding signal (z-score),[16],-0.222
same,glycan array binding signal (z-score),[17],-0.097
same,glycan array binding signal (z-score),[18],-0.608
same,glycan array binding signal (z-score),[19],-0.615
same,glycan array binding signal (z-score),[20],-0.776
same,glycan array binding signal (z-score),[21],-0.312
same,glycan array binding signal (z-score),[22],0.056
same,glycan array binding signal (z-score),[23],-0.517
same,glycan array binding signal (z-score),[24],-0.166
same,glycan array binding signal (z-score),[25],-0.069
same,glycan array binding signal (z-score),[26],-0.621
same,glycan array binding signal (z-score),[27],-0.483
same,glycan array binding signal (z-score),[28],-0.152
same,glycan array binding signal (z-score),[29],-0.961
same,glycan array binding signal (z-score),[30],-0.744
same,glycan array binding signal (z-score),[31],-0.6
same,glycan array binding signal (z-score),[32],0.345
same,glycan array binding signal (z-score),[33],-0.708
same,glycan array binding signal (z-score),[34],0.07
same,glycan array binding signal (z-score),[35],-0.747
same,glycan array binding signal (z-score),[36],0.585

# Some of the entries so far, with tabs.
binder	measurement	setting	value
Pwp6 (Candida glabrata) (protein) MGSSHHHHHHSSGLVPRGSHMASANLPKLTNICQIPDNVKKTSGFKGEIRRIGLFPPGGDYTYLLKFPSTGSTASDTISLTTKPQLSTSGWFPSLFGHTYFIKADLLVYMVAYFVPTETGEYTFKLVNSDDAAVMYVGNPSAFPCGSIDTWPEPRKEDINVCDKISASTKLYMEKGLAYPVRLVWYNGGGDGQFNAQFIDPSGTTHTDWNGYVWQYDACTDCDYK	glycan array binding signal (z-score)	[20]	-0.776
same	glycan array binding signal (z-score)	[21]	-0.312
